Data: patent US20030031667A1 (CELLDEX RESEARCH, published 2003)
Results are given in words; binding and its absence hold for the method and conditions named. Binding calls can cover weak binding; strength is not graded here.

Molecular target: B11 target antigen on dendritic cells derived from cynomolgus macaques (cynomolgus macaque)
Assay: flow cytometry, 10 µg/ml B11-FITC on cynomolgus dendritic cells

binding: binds
B1: human monoclonal antibody B11 (antibody, human IgG1, V domains shown)
VH: EVQLVQSGAEVKKPGESLRISCKGSGDSFTTYWIGWVRQMPGKGLEWMGIIYPGDSDTIYSPSFQGQVTISADKSISTAYLQWSSLKASDTAMYYCTRGDRGVDYWGQGTLVTVSS
VL: DIQMTQSPSSLSASVGDRVTITCRASQGISRWLAWYQQKPEKAPKSLIYAASSLQSGVPSRFSGSGSGTDFTLTISGLQPEDFATYYCQQYNSYPRTFGQGTKVEIK
notes: Human IgG1 kappa from a HuMAb mouse hybridoma; also called B11 HuMab; mAb B11
